In article PMC8580317:
These are yes or no findings as the source states them, for the method shown. Binding seen in cells or lysates may run through a third protein. Some results given as binding are weak or reduced against the parent protein; the word gives no strength. Sequences can lack the tags named with a protein.

Key:
[1] = molecular target: T1, Nluc-FZD6-WT (human) (UniProt O60353); assay: FRET or BRET; intermolecular BRET in living HEK293T cells cotransfected with an Nluc-tagged FZD WT (donor) and an Nluc-lacking FZD amber mutant labelled with Tet-Cy3 (acceptor); BRET recorded before and after WNT
T1 sequence: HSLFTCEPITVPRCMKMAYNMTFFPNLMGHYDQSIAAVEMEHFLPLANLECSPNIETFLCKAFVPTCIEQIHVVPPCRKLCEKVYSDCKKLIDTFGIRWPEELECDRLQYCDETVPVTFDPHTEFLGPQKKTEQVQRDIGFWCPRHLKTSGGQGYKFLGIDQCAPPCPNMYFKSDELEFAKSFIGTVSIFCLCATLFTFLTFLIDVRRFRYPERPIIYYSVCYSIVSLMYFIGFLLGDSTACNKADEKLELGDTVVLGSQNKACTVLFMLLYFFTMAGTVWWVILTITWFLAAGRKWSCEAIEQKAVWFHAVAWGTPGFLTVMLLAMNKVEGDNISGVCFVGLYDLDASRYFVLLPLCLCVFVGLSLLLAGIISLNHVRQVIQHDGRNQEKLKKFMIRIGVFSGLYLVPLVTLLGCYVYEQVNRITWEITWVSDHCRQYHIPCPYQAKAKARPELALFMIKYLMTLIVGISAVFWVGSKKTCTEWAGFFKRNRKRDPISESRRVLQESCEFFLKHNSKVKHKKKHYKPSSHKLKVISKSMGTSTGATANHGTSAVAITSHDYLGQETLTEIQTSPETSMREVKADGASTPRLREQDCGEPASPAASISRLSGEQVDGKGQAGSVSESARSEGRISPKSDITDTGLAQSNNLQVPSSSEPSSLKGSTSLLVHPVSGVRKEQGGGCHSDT

[2] = molecular target: Nluc-FZD6-K466K-Cy3 sensor (human) (UniProt O60353); assay: FRET or BRET; basal BRET ratio of the Nluc- and Cy3-bearing FZD6 sensor in living HEK293T cells, native sensor against the D365A/R368A/Y369A dimer mutant; intra- and intermolecular BRET not separated

B1: Nluc-lacking FZD6-K466K-Cy3 (dimer control construct) (receptor, UniProt O60353 19-706)
chain: T1 sequence
modifications: trans-cyclooct-2-ene-L-lysine (TCO*K) at 466, labelled with Tet-Cy3
In the case of B1, the binding [1] is reported as “binds”.

B2: Nluc-FZD6-K466K-Cy3 sensor (receptor, UniProt O60353 19-706)
chain: T1 sequence
modifications: trans-cyclooct-2-ene-L-lysine (TCO*K) at 466, labelled with Tet-Cy3
In the case of B2, the binding [2] is reported as “binds”.
